# The list shows a part of the results.
# Sequences of proteins named here, by UniProt entry; tags and fusion partners are left off. A change or cut given only in a name is not applied to a line headed by its entry.
# UniProt O95782: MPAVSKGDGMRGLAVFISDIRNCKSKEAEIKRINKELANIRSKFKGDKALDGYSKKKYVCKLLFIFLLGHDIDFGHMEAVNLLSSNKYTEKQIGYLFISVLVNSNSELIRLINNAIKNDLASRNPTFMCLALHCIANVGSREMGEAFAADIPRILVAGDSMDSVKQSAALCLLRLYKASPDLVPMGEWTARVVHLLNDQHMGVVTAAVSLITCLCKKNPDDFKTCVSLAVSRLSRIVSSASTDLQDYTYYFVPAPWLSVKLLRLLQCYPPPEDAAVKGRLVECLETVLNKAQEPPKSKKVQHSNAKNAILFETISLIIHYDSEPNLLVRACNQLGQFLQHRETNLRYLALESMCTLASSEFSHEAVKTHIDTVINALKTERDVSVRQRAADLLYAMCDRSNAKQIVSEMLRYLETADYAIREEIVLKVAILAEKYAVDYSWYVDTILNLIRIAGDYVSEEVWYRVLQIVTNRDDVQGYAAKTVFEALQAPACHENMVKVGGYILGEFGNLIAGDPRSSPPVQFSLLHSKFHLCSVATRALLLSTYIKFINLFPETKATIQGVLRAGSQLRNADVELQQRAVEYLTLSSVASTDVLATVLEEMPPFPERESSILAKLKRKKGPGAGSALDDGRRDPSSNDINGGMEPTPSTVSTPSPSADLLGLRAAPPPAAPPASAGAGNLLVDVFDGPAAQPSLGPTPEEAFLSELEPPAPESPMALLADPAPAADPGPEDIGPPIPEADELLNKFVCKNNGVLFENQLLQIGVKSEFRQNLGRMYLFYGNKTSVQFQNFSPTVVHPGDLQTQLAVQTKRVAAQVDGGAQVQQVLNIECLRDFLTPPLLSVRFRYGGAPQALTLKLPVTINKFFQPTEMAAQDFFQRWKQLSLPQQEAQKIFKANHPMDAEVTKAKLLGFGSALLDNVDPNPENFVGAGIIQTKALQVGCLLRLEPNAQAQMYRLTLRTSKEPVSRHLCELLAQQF
# UniProt O94973, whole entry, looked up: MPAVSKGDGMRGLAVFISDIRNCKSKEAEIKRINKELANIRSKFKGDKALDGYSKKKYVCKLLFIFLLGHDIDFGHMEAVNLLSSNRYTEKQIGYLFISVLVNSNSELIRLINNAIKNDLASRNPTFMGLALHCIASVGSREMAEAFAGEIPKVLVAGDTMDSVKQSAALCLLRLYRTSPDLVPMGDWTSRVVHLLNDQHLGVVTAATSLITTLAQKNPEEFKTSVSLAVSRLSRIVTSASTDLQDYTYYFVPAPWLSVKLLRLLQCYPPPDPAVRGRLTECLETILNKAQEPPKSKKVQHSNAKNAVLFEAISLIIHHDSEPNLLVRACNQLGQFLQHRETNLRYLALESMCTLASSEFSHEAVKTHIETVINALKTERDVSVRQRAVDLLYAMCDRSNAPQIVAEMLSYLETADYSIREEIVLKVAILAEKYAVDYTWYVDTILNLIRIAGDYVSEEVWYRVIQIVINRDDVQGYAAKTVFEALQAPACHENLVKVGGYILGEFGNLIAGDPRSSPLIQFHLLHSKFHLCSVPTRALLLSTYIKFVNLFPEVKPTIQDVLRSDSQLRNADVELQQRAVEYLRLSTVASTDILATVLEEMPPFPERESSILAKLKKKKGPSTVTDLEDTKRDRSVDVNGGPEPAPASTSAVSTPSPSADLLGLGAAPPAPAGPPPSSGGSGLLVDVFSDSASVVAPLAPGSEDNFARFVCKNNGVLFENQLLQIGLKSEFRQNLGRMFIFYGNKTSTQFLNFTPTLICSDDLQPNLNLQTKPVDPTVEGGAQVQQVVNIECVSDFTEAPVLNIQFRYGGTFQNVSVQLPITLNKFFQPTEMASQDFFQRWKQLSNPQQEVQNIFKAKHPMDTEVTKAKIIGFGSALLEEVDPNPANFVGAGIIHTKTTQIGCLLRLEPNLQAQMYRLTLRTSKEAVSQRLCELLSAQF
# UniProt Q96P48: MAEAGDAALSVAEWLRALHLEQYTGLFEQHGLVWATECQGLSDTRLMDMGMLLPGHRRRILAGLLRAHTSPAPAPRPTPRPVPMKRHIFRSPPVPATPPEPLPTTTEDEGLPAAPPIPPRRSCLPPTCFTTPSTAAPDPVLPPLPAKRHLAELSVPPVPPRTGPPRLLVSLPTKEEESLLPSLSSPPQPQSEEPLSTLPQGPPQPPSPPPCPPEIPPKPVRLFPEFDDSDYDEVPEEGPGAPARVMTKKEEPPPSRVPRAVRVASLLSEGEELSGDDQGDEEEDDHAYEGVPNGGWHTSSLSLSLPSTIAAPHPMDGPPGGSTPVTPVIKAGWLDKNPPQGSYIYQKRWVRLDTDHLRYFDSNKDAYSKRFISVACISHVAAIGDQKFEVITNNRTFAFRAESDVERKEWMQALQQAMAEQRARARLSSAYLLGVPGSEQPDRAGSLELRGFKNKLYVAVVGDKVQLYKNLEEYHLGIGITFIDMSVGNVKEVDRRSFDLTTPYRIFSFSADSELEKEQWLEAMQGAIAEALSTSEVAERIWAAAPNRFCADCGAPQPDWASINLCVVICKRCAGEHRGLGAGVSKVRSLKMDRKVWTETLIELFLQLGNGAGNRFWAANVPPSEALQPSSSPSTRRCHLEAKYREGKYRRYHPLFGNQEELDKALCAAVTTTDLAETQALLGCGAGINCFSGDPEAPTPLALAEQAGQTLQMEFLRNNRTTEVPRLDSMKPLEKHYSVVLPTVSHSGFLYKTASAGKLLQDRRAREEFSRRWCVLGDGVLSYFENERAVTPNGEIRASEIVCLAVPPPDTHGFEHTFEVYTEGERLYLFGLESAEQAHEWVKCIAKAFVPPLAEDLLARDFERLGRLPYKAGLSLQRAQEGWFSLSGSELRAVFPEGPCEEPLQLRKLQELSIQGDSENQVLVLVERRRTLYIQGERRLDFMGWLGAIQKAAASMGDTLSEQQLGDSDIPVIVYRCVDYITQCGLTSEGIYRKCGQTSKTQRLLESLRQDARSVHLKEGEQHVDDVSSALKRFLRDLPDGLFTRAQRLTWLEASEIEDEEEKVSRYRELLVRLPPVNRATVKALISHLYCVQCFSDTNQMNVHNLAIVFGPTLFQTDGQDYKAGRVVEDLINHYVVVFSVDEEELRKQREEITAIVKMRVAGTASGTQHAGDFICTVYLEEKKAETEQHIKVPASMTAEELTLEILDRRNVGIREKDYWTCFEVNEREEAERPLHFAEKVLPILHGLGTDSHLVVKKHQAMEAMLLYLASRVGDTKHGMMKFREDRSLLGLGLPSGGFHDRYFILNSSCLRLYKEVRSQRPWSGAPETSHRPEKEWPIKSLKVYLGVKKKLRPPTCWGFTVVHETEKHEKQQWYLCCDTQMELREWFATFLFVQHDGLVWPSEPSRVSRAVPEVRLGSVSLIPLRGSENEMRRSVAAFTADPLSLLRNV
# UniProt P02656: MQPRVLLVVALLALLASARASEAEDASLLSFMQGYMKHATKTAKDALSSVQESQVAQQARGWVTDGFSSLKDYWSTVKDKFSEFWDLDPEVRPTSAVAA
# UniProt P56377: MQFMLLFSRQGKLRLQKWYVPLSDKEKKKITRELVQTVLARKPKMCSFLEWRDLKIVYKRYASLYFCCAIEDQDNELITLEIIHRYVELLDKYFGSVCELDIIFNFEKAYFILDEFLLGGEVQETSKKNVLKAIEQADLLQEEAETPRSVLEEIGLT
# UniProt Q96CW1: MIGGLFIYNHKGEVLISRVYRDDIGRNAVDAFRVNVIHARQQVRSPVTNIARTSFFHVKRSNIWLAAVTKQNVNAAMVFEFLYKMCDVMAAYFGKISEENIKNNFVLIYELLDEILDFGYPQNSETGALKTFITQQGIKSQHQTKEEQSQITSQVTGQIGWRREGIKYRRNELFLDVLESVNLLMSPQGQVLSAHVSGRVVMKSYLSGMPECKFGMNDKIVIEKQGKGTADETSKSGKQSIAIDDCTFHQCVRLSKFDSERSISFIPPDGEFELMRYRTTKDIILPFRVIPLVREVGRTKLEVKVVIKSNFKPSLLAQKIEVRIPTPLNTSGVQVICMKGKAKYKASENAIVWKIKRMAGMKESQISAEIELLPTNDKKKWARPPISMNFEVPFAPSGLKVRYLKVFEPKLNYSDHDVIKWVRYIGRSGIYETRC
# UniProt Q9H0R1: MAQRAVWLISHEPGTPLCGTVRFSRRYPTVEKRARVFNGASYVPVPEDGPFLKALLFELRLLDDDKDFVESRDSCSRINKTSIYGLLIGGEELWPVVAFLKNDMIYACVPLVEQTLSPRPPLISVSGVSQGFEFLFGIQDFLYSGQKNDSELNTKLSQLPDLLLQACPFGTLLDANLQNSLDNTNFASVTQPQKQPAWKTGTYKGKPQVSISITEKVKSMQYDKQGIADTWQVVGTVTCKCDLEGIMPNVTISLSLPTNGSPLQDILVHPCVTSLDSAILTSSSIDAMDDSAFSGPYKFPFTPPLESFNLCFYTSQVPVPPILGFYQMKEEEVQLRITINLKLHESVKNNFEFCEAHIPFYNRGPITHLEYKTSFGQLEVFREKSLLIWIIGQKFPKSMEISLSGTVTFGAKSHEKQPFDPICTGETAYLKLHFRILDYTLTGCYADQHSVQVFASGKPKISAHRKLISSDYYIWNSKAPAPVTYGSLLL
# UniProt Q9HC16: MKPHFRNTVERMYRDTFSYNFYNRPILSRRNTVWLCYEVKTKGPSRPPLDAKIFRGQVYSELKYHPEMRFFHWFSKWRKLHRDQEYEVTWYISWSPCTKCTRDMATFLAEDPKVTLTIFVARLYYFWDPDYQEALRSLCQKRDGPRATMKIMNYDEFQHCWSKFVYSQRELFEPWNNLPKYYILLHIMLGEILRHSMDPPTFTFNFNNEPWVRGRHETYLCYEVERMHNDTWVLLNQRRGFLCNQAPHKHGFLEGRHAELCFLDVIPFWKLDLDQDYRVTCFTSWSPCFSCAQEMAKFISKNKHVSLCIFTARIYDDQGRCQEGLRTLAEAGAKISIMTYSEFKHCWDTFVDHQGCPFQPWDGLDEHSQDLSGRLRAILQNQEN
# UniProt Q07960: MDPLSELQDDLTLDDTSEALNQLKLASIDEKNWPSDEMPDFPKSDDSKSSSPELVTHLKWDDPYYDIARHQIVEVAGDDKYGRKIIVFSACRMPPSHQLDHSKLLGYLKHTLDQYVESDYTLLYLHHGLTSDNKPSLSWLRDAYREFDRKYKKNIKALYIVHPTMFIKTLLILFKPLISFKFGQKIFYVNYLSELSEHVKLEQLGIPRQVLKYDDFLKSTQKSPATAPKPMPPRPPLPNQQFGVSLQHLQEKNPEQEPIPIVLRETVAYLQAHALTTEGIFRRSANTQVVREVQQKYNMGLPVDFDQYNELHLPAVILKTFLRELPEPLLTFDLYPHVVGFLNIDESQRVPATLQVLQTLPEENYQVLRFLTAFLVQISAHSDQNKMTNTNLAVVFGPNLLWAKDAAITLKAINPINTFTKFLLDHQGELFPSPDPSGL
# UniProt P53680: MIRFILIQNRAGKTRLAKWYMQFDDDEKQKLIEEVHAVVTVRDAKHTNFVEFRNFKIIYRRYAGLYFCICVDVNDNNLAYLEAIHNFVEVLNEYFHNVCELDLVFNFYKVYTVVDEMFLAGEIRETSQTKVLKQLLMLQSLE
# UniProt Q9H8Y5: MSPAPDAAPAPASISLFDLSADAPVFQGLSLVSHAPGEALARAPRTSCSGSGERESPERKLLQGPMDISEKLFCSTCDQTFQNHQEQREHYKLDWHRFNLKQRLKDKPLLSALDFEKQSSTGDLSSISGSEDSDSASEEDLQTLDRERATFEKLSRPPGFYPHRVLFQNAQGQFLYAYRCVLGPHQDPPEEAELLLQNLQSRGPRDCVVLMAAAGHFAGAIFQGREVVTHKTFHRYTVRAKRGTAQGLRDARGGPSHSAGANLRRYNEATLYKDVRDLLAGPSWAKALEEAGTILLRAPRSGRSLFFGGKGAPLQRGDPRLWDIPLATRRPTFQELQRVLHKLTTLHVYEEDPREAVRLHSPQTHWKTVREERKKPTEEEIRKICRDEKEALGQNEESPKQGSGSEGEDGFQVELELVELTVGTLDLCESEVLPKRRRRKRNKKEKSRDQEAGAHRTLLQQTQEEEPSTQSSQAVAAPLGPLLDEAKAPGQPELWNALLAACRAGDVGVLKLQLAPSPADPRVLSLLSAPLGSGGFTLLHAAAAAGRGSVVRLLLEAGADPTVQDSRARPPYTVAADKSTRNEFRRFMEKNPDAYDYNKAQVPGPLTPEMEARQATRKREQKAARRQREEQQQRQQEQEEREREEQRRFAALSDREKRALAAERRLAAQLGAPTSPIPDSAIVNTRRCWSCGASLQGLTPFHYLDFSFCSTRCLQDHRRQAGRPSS
# UniProt Q9NWB6: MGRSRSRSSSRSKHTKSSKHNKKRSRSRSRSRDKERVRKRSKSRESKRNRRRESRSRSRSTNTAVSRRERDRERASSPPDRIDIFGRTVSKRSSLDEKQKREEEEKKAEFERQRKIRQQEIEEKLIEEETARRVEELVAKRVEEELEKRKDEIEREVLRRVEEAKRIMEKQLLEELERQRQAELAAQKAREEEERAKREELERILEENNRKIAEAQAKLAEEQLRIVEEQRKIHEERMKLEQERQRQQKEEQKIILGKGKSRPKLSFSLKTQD
# Columns and labels:
# Experiment in all cases: log2 fold change, soluble protein after heating vs DMSO (PISA); higher = thermal stabilisation; K562 cells, 10 uM, 30 min; active = over 0.2 and 3.5 SD of the protein, either way, in both replicates (recomputed)
# [1] = compound: CN1CCN(CCOc2cc(OC3CCOCC3)c3c(Nc4c(Cl)ccc5c4OCO5)ncnc3c2)CC1 [saracatinib]
# Procedure, shortened: (§1)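 Values are thermal stability changes relative to control samples and are taken from duplicates. They are stated as log2 fold changes. Before quantification by TMTpro 16plex LC-MS/MS with equalised channel sums, K562 cells at 2×10^6 cells/mL were treated with 10 μM compound for 30 min, heated in aliquots for 3 min across 48°C-58°C, pooled, extracted in PBS with 0.5% NP-40 at 4°C, and centrifuged at 21,000xg for 90 min to give the soluble supernatant.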
# [2] = compound: CN1CCN(c2nc(C3=C(c4c[nH]c5ccccc45)C(=O)NC3=O)c3ccccc3n2)CC1 [sotrastaurin]
# Procedure, shortened: as §1
# [3] = compound: CN1CCc2c(c3ccccc3n2Cc2ccc(C(=O)NO)cc2)C1 [Tubastatin A]
# Procedure, shortened: as §1
# [4] = compound: CNC(=O)C1=CC=CC=C1NC2=NC(=NC=C2Cl)NC3=C(C=C(C=C3)N4CCOCC4)OC
# Procedure, shortened: as §1
# [5] = compound: CNC(=O)c1ccc(Nc2ncc(C(F)(F)F)c(NCc3nccnc3N(C)S(C)(=O)=O)n2)cc1 [defactinib]
# Procedure, shortened: as §1
# [6] = compound: CNCc1ccc(-c2[nH]c3cc(F)cc4c3c2CCNC4=O)cc1 [rucaparib]
# Procedure, shortened: as §1
# [7] = compound: CNc1nc(-c2ccc3c(N)n[nH]c3c2)cc(N2C[C@@H](C(=O)NC3CCCCC3)CC[C@H]2C)n1
# Procedure, shortened: as §1
# [8] = compound: COC(=O)N[C@@H](C)CNc1nccc(-c2cn(C(C)C)nc2-c2cc(Cl)cc(NS(C)(=O)=O)c2F)n1 [encorafenib]
# Procedure, shortened: as §1
# [9] = compound: COC(=O)[C@H](CCSC)NC(=O)C1=C(C=C(C=C1)NC[C@H](CS)N)C2=CC=CC=C2
# Procedure, shortened: as §1
# [10] = compound: CN1CC[C@H](c2c(O)cc(O)c3c(=O)cc(-c4ccccc4Cl)oc23)[C@H](O)C1 [alvocidib]
# Procedure, shortened: as §1
Target,log2 fold change [1],log2 fold change [2],log2 fold change [3],log2 fold change [4],log2 fold change [5],log2 fold change [6],log2 fold change [7],log2 fold change [8],log2 fold change [9],log2 fold change [10]
APOB (UniProt P04114),inactive: -0.139,inactive: -0.17,inactive: -0.021,inactive: 0.012,inactive: 0.05,inactive: -0.197,inactive: -0.364,inactive: 0.04,inactive: -0.005,
ANK2 (UniProt Q01484),inactive: 0.24,inactive: 0.05,inactive: -0.122,inactive: 0.05,inactive: -0.057,inactive: -0.019,inactive: -0.095,inactive: -0.106,inactive: -0.041,
ANKRD36 (UniProt A6QL64),inactive: -0.356,inactive: 0.05,inactive: -0.091,,inactive: 0.197,inactive: -0.102,inactive: 0.082,inactive: -0.075,inactive: -0.164,
ARF4 (UniProt P18085),inactive: 0.052,inactive: 0.028,inactive: 0.011,inactive: 0.028,inactive: -0.005,inactive: -0.051,inactive: -0.004,inactive: 0,inactive: -0.032,
ARAF (UniProt P10398),inactive: 0.037,inactive: -0.022,inactive: -0.004,inactive: -0.084,inactive: -0.023,inactive: 0.01,inactive: 0.023,inactive: 0.177,inactive: -0.067,
ARHGAP4 isoform 2 (UniProt P98171),inactive: -0.094,inactive: 0.115,inactive: -0.172,inactive: -0.096,inactive: 0.22,inactive: -0.062,inactive: -0.139,inactive: 0.047,inactive: 0.097,
AP2A1 (UniProt O95782),inactive: 0.049,inactive: 0.001,inactive: 0.001,inactive: 0.004,inactive: 0.012,inactive: 0.01,inactive: -0.047,inactive: 0.032,inactive: -0.038,
APLP2 (UniProt Q06481),inactive: 0.072,inactive: 0.094,inactive: 0.014,inactive: 0.009,inactive: -0.055,inactive: -0.082,inactive: -0.051,inactive: 0.02,inactive: 0.051,
APH1A (UniProt Q96BI3),inactive: 0.025,inactive: 0.131,inactive: 0.097,inactive: -0.047,inactive: -0.089,inactive: 0.002,inactive: -0.01,inactive: 0,inactive: -0.111,
AP2M1 (UniProt C9JTK4),inactive: -0.109,inactive: 0.055,inactive: -0.045,,inactive: -0.053,inactive: 0.07,inactive: -0.019,inactive: -0.048,inactive: 0.193,
AP2A2 isoform 2 (UniProt O94973),inactive: 0.006,inactive: -0.028,inactive: 0.022,inactive: 0.022,inactive: -0.006,inactive: 0.077,inactive: -0.053,inactive: -0.002,inactive: -0.008,
ANAPC2 (UniProt Q9UJX6),inactive: -0.003,inactive: -0.084,inactive: 0.009,inactive: -0.011,inactive: -0.049,inactive: 0.027,inactive: -0.063,inactive: 0.124,inactive: 0.006,
AP4E1 (UniProt Q9UPM8),inactive: 0.144,inactive: -0.239,inactive: 0.041,inactive: -0.101,inactive: -0.075,,inactive: -0.165,,inactive: 0.037,inactive: 0
ARFGAP2 (UniProt Q8N6H7),inactive: 0.037,inactive: -0.051,inactive: 0.03,inactive: 0.025,inactive: -0.023,inactive: 0.017,inactive: 0.017,inactive: 0.05,inactive: -0.02,
ARFIP1 (UniProt P53367),inactive: 0.043,inactive: -0.037,inactive: 0.047,active: -0.351,inactive: -0.08,inactive: -0.086,inactive: 0.075,inactive: -0.01,inactive: 0.163,
ARAP1 (UniProt Q96P48),inactive: -0.521,inactive: -0.064,inactive: -0.427,,,inactive: 0.379,inactive: 0.284,inactive: 0.161,,inactive: 0.026
APPL1 (UniProt Q9UKG1),inactive: 0.029,inactive: -0.004,inactive: 0.002,inactive: 0.027,inactive: 0.037,inactive: -0.095,inactive: -0.03,inactive: 0.03,inactive: -0.029,
APOC3 (UniProt P02656),inactive: -0.304,inactive: 0.207,inactive: 0.018,,,inactive: -0.125,inactive: 0.171,inactive: -0.085,,inactive: -0.177
AP1S2 (UniProt P56377),inactive: 0.14,inactive: -0.023,,,,inactive: -0.03,inactive: -0.004,inactive: -0.031,,inactive: 0.085
AP2M1 (UniProt Q96CW1),inactive: 0.032,inactive: 0.008,inactive: 0.002,inactive: 0.005,inactive: 0.016,inactive: 0.026,inactive: 0.001,inactive: 0.008,inactive: -0.014,
ARHGAP6 (UniProt O43182),inactive: 0.005,inactive: 0.048,inactive: 0.224,,,inactive: 0.338,inactive: -0.009,inactive: 0.19,,
ANP32E (UniProt Q9BTT0),inactive: 0.006,inactive: -0.105,inactive: 0.052,inactive: 0.041,inactive: -0.239,inactive: -0.108,inactive: -0.06,inactive: 0.159,inactive: -0.022,
ANKRD29 (UniProt Q8N6D5),inactive: -0.089,inactive: -0.011,inactive: 0.27,inactive: -0.02,inactive: -0.04,inactive: -0.227,inactive: 0.118,inactive: 0,inactive: -0.038,
AP5M1 (UniProt Q9H0R1),inactive: 0.237,inactive: -0.016,,,inactive: -0.346,inactive: -0.049,inactive: 0.003,inactive: 0.196,inactive: -0.054,inactive: -0.01
APOBEC3G (UniProt Q9HC16),inactive: 0.046,inactive: 0.023,inactive: -0.045,inactive: -0.093,inactive: -0.097,inactive: 0.152,inactive: -0.121,inactive: -0.263,inactive: 0.038,
ARHGAP1 (UniProt Q07960),inactive: -0.015,inactive: -0.03,inactive: 0.044,inactive: -0.032,inactive: -0.046,inactive: 0.005,inactive: -0.019,inactive: 0.001,inactive: -0.014,
AP2S1 (UniProt P53680),inactive: 0.012,inactive: 0.009,inactive: 0.009,inactive: 0.077,inactive: 0.038,inactive: 0.019,inactive: -0.012,inactive: 0.077,inactive: 0.025,
AP2B1 isoform 2 (UniProt P63010),inactive: 0.057,inactive: -0.003,inactive: 0.001,inactive: 0.022,inactive: 0.005,inactive: 0.043,inactive: -0.011,inactive: 0.027,inactive: 0.005,
ANKZF1 (UniProt Q9H8Y5),inactive: -0.146,inactive: -0.093,inactive: 0.088,inactive: 0.04,inactive: 0.123,inactive: 0.167,inactive: 0.156,inactive: 0.119,inactive: -0.274,
ARGLU1 (UniProt Q9NWB6),inactive: 0.016,inactive: 0.091,inactive: 0.003,inactive: -0.365,inactive: -0.04,inactive: -0.026,inactive: -0.028,inactive: -0.006,inactive: 0.077,

# Shown tab-delimited: part of the list above
Target	log2 fold change [1]	log2 fold change [2]	log2 fold change [3]	log2 fold change [4]	log2 fold change [5]	log2 fold change [6]	log2 fold change [7]	log2 fold change [8]	log2 fold change [9]	log2 fold change [10]
AP2A1 (UniProt O95782)	inactive: 0.049	inactive: 0.001	inactive: 0.001	inactive: 0.004	inactive: 0.012	inactive: 0.01	inactive: -0.047	inactive: 0.032	inactive: -0.038	
AP2B1 isoform 2 (UniProt P63010)	inactive: 0.057	inactive: -0.003	inactive: 0.001	inactive: 0.022	inactive: 0.005	inactive: 0.043	inactive: -0.011	inactive: 0.027	inactive: 0.005	

# From the supplement of paper PMC10849652
